The list shows a part of the results. Many values rest on one well or one pass, so single values are uncertain.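 Cells were imaged in 1,536-well plates, and nuclei stained with an antibody against cleaved PARP were counted against all DNA-stained nuclei to give the apoptosis fraction. Screening doses were chosen to leave most cells alive, and resting and induced cleaved-PARP levels differ strongly between cell lines.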
tested on: COLO800; assay: cleaved PARP positive nuclei fraction relative to DMSO control; melanoma cells; higher = more apoptosis; conditions: library dose: low library concentration; 72 h

SMILES	cleaved PARP positive nuclei fraction
C[C@@H](N)c1ccc(C(=O)Nc2ccnc3[nH]ccc23)cc1 + Cn1c(=O)n(-c2ccc(C(C)(C)C#N)cc2)c2c3cc(-c4cnc5ccccc5c4)ccc3ncc21 [NVP-BEZ235] (first compound 0.4 µM, partner dose 0.004 µM)	100%
Cn1cnc2c(F)c(Nc3ccc(Br)cc3Cl)c(C(=O)NOCCO)cc21 [selumetinib] + Cn1c(Nc2ccc(C(F)(F)F)cc2)nc2cc(Oc3ccnc(-c4ncc(C(F)(F)F)[nH]4)c3)ccc21 [CHIR265] (first compound 0.015 µM, partner dose 0.08 µM)	140%
NC1(c2ccc(-c3nc4ccn5c(=O)[nH]nc5c4cc3-c3ccccc3)cc2)CCC1 + Clc1ccc(Nc2nnc(Cc3ccncc3)c3ccccc23)cc1 [vatalanib] (first compound 0.4 µM, partner dose 2 µM)	95.1%
CCCCCCCCc1ccc(CCC(N)(CO)CO)cc1 [fingolimod] + OCc1c[nH]c2ccccc12 [Indole-3-carbinol] (first compound 2 µM, partner dose 0.8 µM)	233%
Cn1sc(=O)n(Cc2ccccc2)c1=O + Clc1ccc(Nc2nnc(Cc3ccncc3)c3ccccc23)cc1 [vatalanib] (first compound 0.4 µM, partner dose 2 µM)	120%
NC(=O)c1ccc(N(C(N)=O)c2c(F)cccc2F)nc1-c1ccc(F)cc1F + CC(=O)c1c(C)c2cnc(Nc3ccc(N4CCNCC4)cn3)nc2n(C2CCCC2)c1=O [palbociclib] (first compound 0.4 µM, partner dose 0.04 µM)	129%
